Chains of the proteins cited; added tags and fusions are not shown.
UniProt P19525, whole entry K296R: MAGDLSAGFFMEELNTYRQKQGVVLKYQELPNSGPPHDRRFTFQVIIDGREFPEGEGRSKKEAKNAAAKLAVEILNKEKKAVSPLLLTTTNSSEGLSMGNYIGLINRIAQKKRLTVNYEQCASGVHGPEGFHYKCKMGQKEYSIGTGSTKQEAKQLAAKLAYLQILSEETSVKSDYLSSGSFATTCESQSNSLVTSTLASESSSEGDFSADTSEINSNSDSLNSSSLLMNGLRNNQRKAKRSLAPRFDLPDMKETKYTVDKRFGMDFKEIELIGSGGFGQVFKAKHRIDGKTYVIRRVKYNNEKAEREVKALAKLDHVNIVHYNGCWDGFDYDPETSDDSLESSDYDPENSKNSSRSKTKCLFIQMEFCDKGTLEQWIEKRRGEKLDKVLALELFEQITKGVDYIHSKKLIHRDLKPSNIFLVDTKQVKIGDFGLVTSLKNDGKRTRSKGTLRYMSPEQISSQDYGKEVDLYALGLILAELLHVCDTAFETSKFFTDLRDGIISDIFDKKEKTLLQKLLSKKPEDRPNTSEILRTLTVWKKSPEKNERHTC

In publication PMC11978871, “PACT prevents aberrant activation of PKR by endogenous dsRNA without sequestration” (Nature Communications, 2024):

What was measured:
[1] = target: PKR K296R (UniProt P19525); assay: smFRET; conditions: recombinant protein, residues 1-551, protein details: pET29b, Cy5-labeled in smFRET, label: Cy3, biotin
[2] = target: PKR (gel shift) (UniProt P19525); assay: EMSA; conditions: 25 ng/ul RNA, EMSA: 20 mM HEPES pH 7.5, 150 mM NaCl, 2 mM DTT, RT 15 min, 0.2 ng/ul 32P-112 bp dsRNA, 0-4000 nM protein, Bis-Tris native …, recombinant protein, residues 1-551, protein details: pET29b
[3] = target: T1, PACT ΔD2 del110-198 (UniProt O75569); assay: EMSA; conditions: EMSA: 20 mM HEPES pH 7.5, 150 mM NaCl, 2 mM DTT, RT 15 min, 0.2 ng/ul 32P-112 bp dsRNA, 0-4000 nM protein, Bis-Tris native PAGE; recombinant protein; residues 1-313; protein details: His-tag removed; label: 32P
T1 sequence (looked up): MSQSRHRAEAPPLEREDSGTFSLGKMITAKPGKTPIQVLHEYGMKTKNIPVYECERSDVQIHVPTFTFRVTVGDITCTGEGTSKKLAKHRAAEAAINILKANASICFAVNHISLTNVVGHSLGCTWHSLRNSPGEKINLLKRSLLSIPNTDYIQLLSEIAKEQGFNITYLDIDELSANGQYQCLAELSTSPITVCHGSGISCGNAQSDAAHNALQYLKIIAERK

[4] = target: T2, PACT ΔD1 (UniProt O75569); assay: EMSA; conditions: EMSA: 20 mM HEPES pH 7.5, 150 mM NaCl, 2 mM DTT, RT 15 min, 0.2 ng/ul 32P-112 bp dsRNA, 0-4000 nM protein, Bis-Tris native PAGE; recombinant protein; residues 124-313; protein details: His-tag removed; label: 32P
T2 sequence (looked up): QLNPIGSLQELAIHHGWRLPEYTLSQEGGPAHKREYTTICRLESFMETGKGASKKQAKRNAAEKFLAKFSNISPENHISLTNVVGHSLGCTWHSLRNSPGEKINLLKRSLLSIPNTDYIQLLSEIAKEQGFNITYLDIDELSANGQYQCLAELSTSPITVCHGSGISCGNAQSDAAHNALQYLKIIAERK

[5] = target: T3, PACT 4KE K84E,K85E,K177E,K178E (UniProt O75569); assay: EMSA; conditions: 0-4000 nM; EMSA: 20 mM HEPES pH 7.5, 150 mM NaCl, 2 mM DTT, RT 15 min, 0.2 ng/ul 32P-112 bp dsRNA, 0-4000 nM protein, Bis-Tris native PAGE; recombinant protein; residues 1-313; protein details: pET47b; label: 32P
T3 sequence (looked up): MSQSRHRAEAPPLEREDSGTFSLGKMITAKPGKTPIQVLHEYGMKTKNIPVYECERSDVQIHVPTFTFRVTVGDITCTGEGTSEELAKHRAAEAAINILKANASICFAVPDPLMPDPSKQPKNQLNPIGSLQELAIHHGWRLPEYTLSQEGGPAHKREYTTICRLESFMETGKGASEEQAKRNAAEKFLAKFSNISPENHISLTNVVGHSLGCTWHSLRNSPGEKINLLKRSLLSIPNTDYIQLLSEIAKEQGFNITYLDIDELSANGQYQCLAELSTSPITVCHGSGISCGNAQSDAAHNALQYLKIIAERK

[6] = target: T4, RIG-I ΔCARDs (UniProt O95786); assay: EMSA; conditions: affinity comparable to PACT; EMSA: 20 mM HEPES pH 7.5, 150 mM NaCl, 2 mM DTT, RT 15 min, 0.2 ng/ul 32P-112 bp dsRNA, 0-4000 nM protein, Bis-Tris native PAGE; recombinant protein; label: …
T4 sequence (looked up, limits assumed): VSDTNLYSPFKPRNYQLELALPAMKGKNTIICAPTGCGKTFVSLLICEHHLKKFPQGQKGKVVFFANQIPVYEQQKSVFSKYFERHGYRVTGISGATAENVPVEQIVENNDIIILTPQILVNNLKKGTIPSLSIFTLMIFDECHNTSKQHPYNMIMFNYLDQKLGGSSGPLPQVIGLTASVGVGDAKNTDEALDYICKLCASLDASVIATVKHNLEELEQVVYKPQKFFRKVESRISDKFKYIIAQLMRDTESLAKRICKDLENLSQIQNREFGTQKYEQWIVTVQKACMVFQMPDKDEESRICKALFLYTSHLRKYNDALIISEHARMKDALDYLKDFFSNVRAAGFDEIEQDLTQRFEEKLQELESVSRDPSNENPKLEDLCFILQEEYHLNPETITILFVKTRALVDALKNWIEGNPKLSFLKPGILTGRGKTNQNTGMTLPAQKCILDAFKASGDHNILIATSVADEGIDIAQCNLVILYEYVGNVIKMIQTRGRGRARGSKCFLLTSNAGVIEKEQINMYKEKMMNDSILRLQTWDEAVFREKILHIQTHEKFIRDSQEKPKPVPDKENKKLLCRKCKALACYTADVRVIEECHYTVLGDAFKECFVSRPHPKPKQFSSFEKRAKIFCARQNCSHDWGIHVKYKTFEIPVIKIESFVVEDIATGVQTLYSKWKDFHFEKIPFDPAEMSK

[7] = target: T5, PACT WT (UniProt O75569); assay: EMSA; conditions: Hill fit assuming 8 sites; EMSA: 20 mM HEPES pH 7.5, 150 mM NaCl, 2 mM DTT, RT 15 min, 0.2 ng/ul 32P-112 bp dsRNA, 0-4000 nM protein, Bis-Tris native PAGE; recombinant protein; residues 1-313; protein details: His-tag removed (HRV-3C); label: 32P
T5 sequence (looked up): T3 sequence (looked up) with E84K, E85K, E177K, E178K

[8] = target: T6, PACT ΔD3 (UniProt O75569); assay: EMSA; conditions: less significant impact on binding; EMSA: 20 mM HEPES pH 7.5, 150 mM NaCl, 2 mM DTT, RT 15 min, 0.2 ng/ul 32P-112 bp dsRNA, 0-4000 nM protein, Bis-Tris native PAGE; recombinant protein; residues 1-196; protein details: His-tag removed; label: 32P
T6 sequence (looked up): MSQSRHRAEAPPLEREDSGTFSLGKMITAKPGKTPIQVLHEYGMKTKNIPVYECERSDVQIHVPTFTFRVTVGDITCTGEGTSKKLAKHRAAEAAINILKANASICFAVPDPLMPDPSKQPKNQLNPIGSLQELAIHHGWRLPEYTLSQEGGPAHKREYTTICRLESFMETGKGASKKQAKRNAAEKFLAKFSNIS

[9] = target: T7, PACT D3 (UniProt O75569); assay: EMSA; conditions: EMSA: 20 mM HEPES pH 7.5, 150 mM NaCl, 2 mM DTT, RT 15 min, 0.2 ng/ul 32P-112 bp dsRNA, 0-4000 nM protein, Bis-Tris native PAGE; recombinant protein; residues 235-313; protein details: pET47b; label: 32P
T7 sequence (looked up): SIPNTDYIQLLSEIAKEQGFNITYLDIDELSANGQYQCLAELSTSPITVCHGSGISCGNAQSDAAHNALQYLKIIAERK

[10] = target: T5, PACT WT; assay: single-molecule fluorescence; conditions: PACT scans dsRNA, dsRNA length not given in excerpt; recombinant protein; residues 1-313; protein details: His-tag removed (HRV-3C); label: Cy3, biotin

Does “GGGAGAAUGUCGAAUGGGUAUUCCACAGACGAGAAUUCUCCC / GGGAGAAUUCUCGUCUGUGGAAUACCCAUUCGACAUUCUCCC [Cy3-42 bp dsRNA (smFRET)]” bind ([1]; 50 nM PKR, sliding time 0.130 ± 0.00657 s)?
Result: binds

Does “GGGAGAAUGUCGAAUGGGUAUUCCACAGACGAGAAUUCUCCC / GGGAGAAUUCUCGUCUGUGGAAUACCCAUUCGACAUUCUCCC [42 bp dsRNA]” bind ([2]; up to 3 PKR bound)?
Result: binds

Does “GGGAGAAUGUCGAAUGGGUAUUCCACAGACGAGAAUUUCCGCUAUCUCAUCUCGUGCUUCAGGGCCAGGGUGAAAAUGUACAUCCAGGUGGAGCCUGUGCUGGACUUCUCCC / GGGAGAAGUCCAGCACAGGCUCCACCUGGAUGUACAUUUUCACCCUGGCCCUGAAGCACGAGAUGAGAUAGCGGAAAUUCUCGUCUGUGGAAUACCCAUUCGACAUUCUCCC [112 bp dsRNA]” bind [3]?
Result: binds more weakly

Does “GGGAGAAUGUCGAAUGGGUAUUCCACAGACGAGAAUUUCCGCUAUCUCAUCUCGUGCUUCAGGGCCAGGGUGAAAAUGUACAUCCAGGUGGAGCCUGUGCUGGACUUCUCCC / GGGAGAAGUCCAGCACAGGCUCCACCUGGAUGUACAUUUUCACCCUGGCCCUGAAGCACGAGAUGAGAUAGCGGAAAUUCUCGUCUGUGGAAUACCCAUUCGACAUUCUCCC [112 bp dsRNA]” bind [4]?
Result: binds more weakly

Does “GGGAGAAUGUCGAAUGGGUAUUCCACAGACGAGAAUUUCCGCUAUCUCAUCUCGUGCUUCAGGGCCAGGGUGAAAAUGUACAUCCAGGUGGAGCCUGUGCUGGACUUCUCCC / GGGAGAAGUCCAGCACAGGCUCCACCUGGAUGUACAUUUUCACCCUGGCCCUGAAGCACGAGAUGAGAUAGCGGAAAUUCUCGUCUGUGGAAUACCCAUUCGACAUUCUCCC [112 bp dsRNA]” bind [5]?
Result: no binding

Does “GGGAGAAUGUCGAAUGGGUAUUCCACAGACGAGAAUUUCCGCUAUCUCAUCUCGUGCUUCAGGGCCAGGGUGAAAAUGUACAUCCAGGUGGAGCCUGUGCUGGACUUCUCCC / GGGAGAAGUCCAGCACAGGCUCCACCUGGAUGUACAUUUUCACCCUGGCCCUGAAGCACGAGAUGAGAUAGCGGAAAUUCUCGUCUGUGGAAUACCCAUUCGACAUUCUCCC [112 bp dsRNA]” bind [6]?
Result: binds

What about the Kd [7] of the same sequence?
The Kd was 358 nM.

Does “GGGAGAAUGUCGAAUGGGUAUUCCACAGACGAGAAUUUCCGCUAUCUCAUCUCGUGCUUCAGGGCCAGGGUGAAAAUGUACAUCCAGGUGGAGCCUGUGCUGGACUUCUCCC / GGGAGAAGUCCAGCACAGGCUCCACCUGGAUGUACAUUUUCACCCUGGCCCUGAAGCACGAGAUGAGAUAGCGGAAAUUCUCGUCUGUGGAAUACCCAUUCGACAUUCUCCC [112 bp dsRNA]” bind [8]?
Result: binds

Does “GGGAGAAUGUCGAAUGGGUAUUCCACAGACGAGAAUUUCCGCUAUCUCAUCUCGUGCUUCAGGGCCAGGGUGAAAAUGUACAUCCAGGUGGAGCCUGUGCUGGACUUCUCCC / GGGAGAAGUCCAGCACAGGCUCCACCUGGAUGUACAUUUUCACCCUGGCCCUGAAGCACGAGAUGAGAUAGCGGAAAUUCUCGUCUGUGGAAUACCCAUUCGACAUUCUCCC [112 bp dsRNA]” bind [9]?
Result: no binding

Does “GGGAGAAUGUCGAAUGGGUAUUCCACAGACGAGAAUUUCCGCUAUCUCAUCUCGUGCUUCAGGGCCAGGGUGAAAAUGUACAUCCAGGUGGAGCCUGUGCUGGACUUCUCCC / GGGAGAAGUCCAGCACAGGCUCCACCUGGAUGUACAUUUUCACCCUGGCCCUGAAGCACGAGAUGAGAUAGCGGAAAUUCUCGUCUGUGGAAUACCCAUUCGACAUUCUCCC [Cy3-112 bp dsRNA (smFRET)]” bind [10]?
Result: binds

Does “GGGAGAAUGUCGAAUGGGUAUUCCACAGACGAGAAUUUCCGCUAUCUCAUCUCGUGCUUCAGGGCCAGGGUGAAAAUGUACAUCCAGGUGGAGCCUGUGCUGGACUUCUCCC / GGGAGAAGUCCAGCACAGGCUCCACCUGGAUGUACAUUUUCACCCUGGCCCUGAAGCACGAGAUGAGAUAGCGGAAAUUCUCGUCUGUGGAAUACCCAUUCGACAUUCUCCC [Cy3-112 bp dsRNA (smFRET)]” bind ([1]; 50 nM PKR, sliding time 0.230 ± 0.0101 s)?
Result: binds

Does “GGGAGAAUGUCGAAUGGGUAUUCCACAGACGAGAAUUUCCGCUAUCUCAUCUCGUGCUUCAGGGCCAGGGUGAAAAUGUACAUCCAGGUGGAGCCUGUGCUGGACUUCUCCC / GGGAGAAGUCCAGCACAGGCUCCACCUGGAUGUACAUUUUCACCCUGGCCCUGAAGCACGAGAUGAGAUAGCGGAAAUUCUCGUCUGUGGAAUACCCAUUCGACAUUCUCCC [Cy3-112 bp dsRNA (smFRET)]” bind ([1]; with 50 nM unlabeled PACT, binding not blocked, shorter residence and sliding time)?
Result: binds

Does “GGGAGAAUGUCGAAUGGGUAUUCCACAGACGAGAAUUUCCGCUAUCUCAUCUCGUGUCUCCC / GGGAGACACGAGAUGAGAUAGCGGAAAUUCUCGUCUGUGGAAUACCCAUUCGACAUUCUCCC [62 bp dsRNA]” bind ([2]; up to 4 PKR bound)?
Result: binds

Where a chain is given by its changes, count along the chain named. For at least one entry, the source does not settle the construct or the ends of the probe. For some of these results: No signal at the amounts used counts as a negative. For some of these results: At least one verdict rests on a figure or table, not on a statement of the authors. For some of these results: Tags and fusion partners may be left off the protein sequences shown. For some of these results: The comparison behind a weaker result is the experiment's own reference, which may not be listed here.
